# Experimental data taken from PubChem BioAssay AID1347076 (National Center for Advancing Translational Sciences (NCATS), 2019).
# Hit rate of the full screen: of about 400,000 compounds, about 13,000 (3.2%) were called active. Inconclusive means that the source gave no clear call. Such entries were picked first, then a sample of the others. Calls follow the shape of the dose curve; as a rule, active = well fitted cell-killing curve with a large enough effect; inconclusive = small, poorly fitted or top-dose-only effect, or effect the other way; inactive = flat fitted curve, though single readings scatter. Where the call is inconclusive, the potency comes from a doubtful curve fit.
# Experiment: qHTS assay for MDR1-selective chemotherapeutics: Primary screen using the drug-selected MDR subline cells KB-V1; also: nearly all actives have a fitted effect of over 60% in size
# Details: KB-V1 MDR cells viability, CellTiter-Glo, 72 h; activity change, negative = cytotoxicity: at 46.1 µM (top of the series)
# Outline: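 Compound-treated KB-V1 multidrug-resistant cells, 72 h, 37 degrees C; viability by CellTiter-Glo. Fitted qHTS curves give the values.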
# % is scaled to controls: 0 for no effect and ±100 for the full control effect; potency is read from the fitted curve at half-maximal effect.
Compound,Potency,"activity change, negative = cytotoxicity"
Cc1cc(C)nc(N2CCCC(C(=O)Nc3cc(F)ccc3C)C2)n1 (stereo not drawn),active: 16.4 µM,–
CCN(CC)C(=O)c1ccc2nc([C@H]3C[C@H](O)[C@@H](CO)O3)[nH]c2c1,–,inactive: 0%
CC1CN(C(=O)Nc2ccc(C(=O)NCCc3ccccc3)cc2)c2ccccc2S1 (stereo not drawn),"inconclusive: 4.61 µM [cytotoxic, partial curve, poor fit]",–
Cc1ccc(C)c(OCC(=O)Nc2ccncc2)c1,–,inactive: 10.9%
Cc1cc2c3c(c1)C(C)CC(C)(C)N3C(=O)C2=O (stereo not drawn),–,inactive: -14.4%
C=CCn1c(-c2ccc3ncccc3c2)n[nH]c1=S,"inconclusive: 18.4 µM [cytotoxic, single point]",–
C=C(C)C(=O)Nc1cccc(C2=NOC3(C2)C[C@@H](C(N)=O)N(C(=O)c2ccc(OC)cc2)C3)c1 (stereo partly drawn),"inconclusive: 3.26 µM [rising, partial curve]",–
COc1ccc(C(=O)c2cn[nH]c2-c2cc(Cl)ccc2O)cc1,active: 18.4 µM,–
CCOC(=O)C[C@H]1c2cc(F)ccc2S(=O)(=O)N1Cc1cc(OC)c(OC)c(OC)c1,"inconclusive: 13 µM [cytotoxic, partial curve]",–
O=C(Nc1ccc(Cl)cn1)c1cccc(OCc2ccccc2)c1,"inconclusive: 23.1 µM [cytotoxic, single point]",–
O=C(CSc1nccn1Cc1ccccc1)NCc1ccc(F)cc1,"inconclusive: 16.4 µM [rising, partial curve]",–
O=C1c2ccccc2C(=O)C12OC2c1ccc(Cl)cc1Cl (stereo not drawn),"inconclusive: 29.1 µM [cytotoxic, single point]",–
Cc1ccc(/C=C/c2ccc(=O)n(Cc3ccccc3Cl)n2)cc1,active: 20.6 µM,–
CCN(Cc1ccccc1)C(=O)c1c(C)oc2ncn(C)c(=O)c12,–,inactive: -6.8%
CCC(Oc1ccccc1)C(=O)OCC(=O)N(CC)c1c(N)n(Cc2ccccc2)c(=O)[nH]c1=O (stereo not drawn),–,inactive: -0.443%
CCc1ccccc1N(CC)C(=O)c1cn(C)c(=O)c2cc(OC)c(OC)cc12,"inconclusive: 29.1 µM [cytotoxic, single point]",–
O=C(Nc1ccc(Cl)cc1)c1cccc(N2C(=O)C3C4CCC(C4)C3C2=O)c1 (stereo not drawn),active: 8.2 µM,–
CCCN(CCC)S(=O)(=O)c1ccc(N2CCCC2=O)c([N+](=O)[O-])c1,active: 20.6 µM,–
Cc1ccc(N2N=C(C(=O)O)CCC2=O)cc1Cl,"inconclusive: 29.1 µM [rising, single point]",–
COc1ccc(NC(=O)/C=C/c2cccc(F)c2)cn1,"inconclusive: 20.6 µM [cytotoxic, partial curve]",–
O=C(CCCCCCC(=O)Nc1ccccc1)NO,active: 1.3 µM,–
COc1ccc(CN(C)C(=O)c2sccc2-c2ccccc2)c(OC)c1,–,inactive: 1.01%
COc1cccc(CC(=O)Nc2sc3c(c2C(N)=O)CCCC3)c1,"inconclusive: 14.6 µM [cytotoxic, partial curve, poor fit]",–
Cn1c(=O)c2cc(NC(=O)NCCc3cccs3)ccc2n1Cc1ccccc1,–,inactive: -11.5%
O=C(Cc1cccc2ccccc12)NN=Cc1ccc2c(c1)CCC2,"inconclusive: 18.4 µM [cytotoxic, single point]",–

Compound,Potency,"activity change, negative = cytotoxicity"
O=C(CNS(=O)(=O)c1ccc(Br)s1)NCC1COc2ccccc2O1 (stereo not drawn),"inconclusive: 23.1 µM [cytotoxic, single point]",–
COc1ccc(-n2c(SCC(N)=O)nc3nc4c(cc3c2=O)COC(C)(C)C4)cc1,"inconclusive: 3.26 µM [rising, partial curve, poor fit]",–
CCn1c2ccc(C)cc2c2nnc(NN)nc21,"inconclusive: 14.6 µM [cytotoxic, single point]",–
CCc1ccc(C(=O)CN2C(=O)NC3(CCCCCC3)C2=O)cc1,–,inactive: -3.96%
C/C(=N\NC(=O)c1c(-c2ccccc2Cl)noc1C)c1cccc(NC(=O)C(C)C)c1,"inconclusive: 0.58 µM [cytotoxic, partial curve]",–
CN1CCN(C(CNC(=O)C(=O)NC2CCCC2)c2ccc(F)cc2)CC1 (stereo not drawn),–,inactive: -10.9%
CCCn1c(SCN2C(=O)c3ccccc3C2=O)nc2cc(Cl)ccc2c1=O,"inconclusive: 16.4 µM [cytotoxic, partial curve]",–
COC(=O)c1ccc2nc(C(F)(F)F)[nH]c2c1,–,inactive: 2.76%
Oc1ccc(COCc2ccccc2)c2cccnc12,"inconclusive: 7.31 µM [cytotoxic, partial curve, poor fit]",–
O=C1c2ccccc2C(=O)N1c1cccc(N2C(=O)c3ccccc3C2=O)n1,–,inactive: 7.31%
Cc1ccc(N=C2NC(=O)/C(=C/c3cn(C)c4ccccc34)S2)cc1C,"inconclusive: 20.6 µM [cytotoxic, partial curve, poor fit]",–
COc1ccccc1N1CCN(C(=O)[C@@H]2CCCN2C2=NS(=O)(=O)c3ccccc32)CC1,–,inactive: -12%
O=C(COC(=O)C1(c2ccccc2F)CCCC1)N1CCN(C(=O)c2ccco2)CC1,"inconclusive: 11.6 µM [cytotoxic, partial curve, poor fit]",–
C/C(=C\C(=O)Nc1nccs1)c1ccccc1,"inconclusive: 29.1 µM [cytotoxic, single point]",–
O=C(O)CCCN(Cc1cccc(Br)c1)S(=O)(=O)c1ccc(Br)cc1,"inconclusive: 16.4 µM [rising, partial curve, poor fit]",–
CCn1cc(CNCc2cn(C)nc2-c2ccc(C3CCCCC3)cc2)cn1,"inconclusive: 2.06 µM [cytotoxic, full curve, poor fit]",–
Cc1ccc2nc(-c3ccsc3)c(Nc3ccccc3C)n2c1,–,inactive: 1.83%
NC(=S)NN=C1CCCCCCCCC1,"inconclusive: 18.4 µM [cytotoxic, single point]",–
CC1(C)CC(=O)c2cnc(N3CCc4ccccc4C3)nc2C1,–,inactive: 2.16%
O=S(=O)(NC1CC1)c1ccc(S(=O)(=O)N2CCCC(c3nc(-c4cccnc4)no3)C2)cc1 (stereo not drawn),active: 8.2 µM,–
Cc1ccc(NC(=O)Nc2ccc3c(c2)OCO3)nc1,–,inactive: 10.5%
Cc1ccc(NC(=O)CSc2ncc3c(n2)-c2ccccc2N(Cc2cccc(F)c2)S3(=O)=O)cc1F,"inconclusive: 32.6 µM [cytotoxic, single point]",–
Cc1ccc(NC(=O)c2ccc(Cl)c(S(=O)(=O)N3CCCCCC3)c2)nc1,–,inactive: -23.4%
CCN(CC)C(=O)n1cnc(-c2ccccc2)c1-c1ccccc1,active: 20.6 µM,–
Cc1ccccc1Cn1c(C(=O)O)c(CNCc2cccc(F)c2)c2ccccc21,"inconclusive: 16.4 µM [rising, single point]",–

# Entries of single compounds, looked up by structure:
# `COC(=O)c1ccc2nc(C(F)(F)F)[nH]c2c1` is listed as activity change, negative = cytotoxicity: inactive: 2.76%
# `NC(=S)NN=C1CCCCCCCCC1` is listed as Potency: inconclusive: 18.4 µM [cytotoxic, single point]
# `C/C(=N\NC(=O)c1c(-c2ccccc2Cl)noc1C)c1cccc(NC(=O)C(C)C)c1` is listed as Potency: inconclusive: 0.58 µM [cytotoxic, partial curve]

# The listing continues.

Compound,Potency,"activity change, negative = cytotoxicity"
COc1ccc(-n2c(/C=C/c3ccccc3F)nc3cc(OC)c(OC)cc3c2=O)cc1Cl,"inconclusive: 18.4 µM [cytotoxic, single point]",–
COc1cc(NC(=O)Cc2ccc(S(=O)(=O)N3CCOCC3)s2)c(OC)cc1Cl,"inconclusive: 18.4 µM [cytotoxic, single point]",–
N#CC1=C(N)Oc2c(ccc3cccnc23)C1c1cccnc1 (stereo not drawn),"inconclusive: 2.91 µM [cytotoxic, full curve, poor fit]",–
Cc1ccc(-n2ncc3c(=O)n(-c4ccc(C)c(C)c4)c(-c4ccco4)nc32)cc1,"inconclusive: 29.1 µM [cytotoxic, single point]",–
Cc1nc2c(OCc3ccc(Cl)cc3Cl)cccn2c1N(C)CC1CC1,"inconclusive: 29.1 µM [cytotoxic, single point]",–
COc1ccc(CNc2cccc3[nH]c(C(F)(F)F)nc23)cc1OC,–,inactive: -0.985%
CCNS(=O)(=O)c1c(C)cc(C)c(N(C)S(=O)(=O)c2ccccc2)c1C,"inconclusive: 23.1 µM [cytotoxic, single point]",–
O=C(COC(=O)/C=C/c1ccccc1Cl)NC1CC1,–,inactive: 12%
O=C(N/N=C/c1ccccc1C(=O)O)c1cc(-c2ccc3c4c(cccc24)CC3)n[nH]1,"inconclusive: 20.6 µM [cytotoxic, single point]",–
COc1ccc2nc(NC(=O)CCn3cccc3)sc2c1,active: 18.4 µM,–
CC(C)c1ccc(S(=O)(=O)c2nnn3c2nc(NCCc2ccccc2)c2sccc23)cc1,"inconclusive: 23.1 µM [cytotoxic, single point]",–
CC(=O)Nc1cc2cc(NS(=O)(=O)c3ccc(Cl)cc3)ccc2oc1=O,–,inactive: 1.66%
O=C(c1cccc([N+](=O)[O-])c1)N1CCN(c2cccc(Cl)c2)CC1,active: 5.8 µM,–
CCCCN(C)C(=O)c1cn(-c2cccc(OC)c2)c(=O)c2ccccc12,–,inactive: 22.3%
O=S(=O)(c1ccc2c(c1)OCCO2)N1CCC(n2nnc3cc(F)ccc32)CC1,"inconclusive: 4.61 µM [cytotoxic, full curve, poor fit]",–
CC1(C(=O)N/N=C/c2ccccc2)CC1(Cl)Cl (stereo not drawn),"inconclusive: 23.1 µM [rising, partial curve, poor fit]",–
Cc1nn(C(=O)c2cccc([N+](=O)[O-])c2C)c(C)c1S(=O)(=O)N1CCOCC1,–,inactive: 0%
Oc1c(Br)cc(Br)cc1CNc1nccs1,"inconclusive: 10.3 µM [rising, partial curve, poor fit]",–
O=C(NC1CCCc2c1cnn2-c1ccc(F)cc1F)c1csnn1 (stereo not drawn),"inconclusive: 14.6 µM [cytotoxic, partial curve]",–
O=S(=O)(/C(=C\c1ccc(C(F)(F)F)cc1)c1nc2ccccc2[nH]1)c1ccccc1,"inconclusive: 1.84 µM [cytotoxic, partial curve, poor fit]",–
COc1ccc(N2CCN(C(=O)CCC(=O)c3cc(C)sc3C)CC2)cc1,–,inactive: -13.8%
S=C(c1ccc[nH]1)N1CCOCC1,–,inactive: 6.46%
O=C(O)c1cc2cc(Cl)cc(Cl)c2oc1=O,"inconclusive: 29.1 µM [rising, single point]",–
